This is one part of the list.
B1: il10ra_site1_sap_10_mot_HHH_b1_06789_af2_000000041_0001_1_20_H_._HHH_b2_05652_0001_0000400032_0000001_0_0001 (protein)
chain: SSSSDERYEFVKEIIKEVIELLREGDPEEARRLLEEAREFVEEFNDIAARFSLEHLLRILDSSSS
B2: il10ra_site1_sap_16_mot_HHH_b1_03230_000000248_0001_1_19_H_._HHH_b1_07999_0001_0000300027_0000001_0_0001_af2pred_dldesign_0_af2pred (protein)
chain: SSSSSDPKALNEEVVRLIREALEVDPERAAELLARARELAEKANSPIMLAAVEAAERALSSSSSS
B3: il10ra_site1_sap_13_mot_HHH_b1_05357_000000034_0001_23_39_H_._HHH_b1_06277_0001_0000200012_0000001_0_0001 (protein)
chain: SSSSNDEALEISQRAFHAALRGDYEEAEELLEEALELAREAGNEQLAEQIERLLEVVRREGSSSS
B4: il10ra_site1_sap_17_mot_HHH_b2_02537_000000065_0001_1_20_H_._HHH_b1_01262_af2_0001_0000300010_0000002_0_0001_af2pred_dldesign_0_af2pred (protein)
chain: SSSSSSEDRLLEATLRFAREAAAAGRLDSARLHLDYALEVAKERKDEELLAEIEALLAELSSSSS
B5: il10ra_site1_sap_28_mot_0eddeacbb14b769e73e254714f31e2f9_0001_af2_000000203_0001_37_51_H_._ems_3hM_77_0001_0000100001_0000002_1_0001_af2pred_dldesign_0_af2pred (protein)
chain: SSSSDVDAELEKMLAEIEKLYKEGKIEEAVKLLKEAAELAYENNNLEANARVLELSRKLASSSSS
B6: il10ra_site1_sap_17_mot_HHH_b1_05056_000000217_0001_1_20_H_._HHH_b2_06117_0001_0000300015_0000001_0_0001 (protein)
chain: SSSSSSWEEQDVRAVIKFAKQISNPEIARVALEYALELAREVGNEELEEEIEELLKELGSSSSSS
B7: il10ra_site1_normal_mot_HHH_b2_03220_af2_000000223_0001_23_40_H_._HHH_b2_02232_0001_0000300042_0000001_0 (protein)
chain: SSSSDKSEEVWRLIRLALELRAEGNPEEAEEVLKEAEELAKELGNFTFRFAIELLKKDIEESSSS
B8: il10ra_site1_sap_15_mot_HHH_b1_06786_000000000_0001_1_20_H_._HHH_b1_01295_0001_0000200021_0000001_0_0001 (protein)
chain: SSSSSDREERIEELLEEAERLREEGNPEEAARILMEALRLIFQLGNEELLRELWELIRRVSSSSS
B9: il10ra_site1_sap_25_mot_HHH_b1_04275_000000001_0001_22_39_H_._HHH_b2_07325_af2_0001_0000200012_0000001_0_0001 (protein)
chain: SSSSSSDAQRVFRLSERAAELASNGNPEEAEEVLEEAEKIAEEANDRLLQHQVRFMLELLSSSSS
B10: il10ra_site1_sap_16_mot_HHH_b1_02766_af2_000000078_0001_42_56_H_._HHH_b2_00444_af2_0001_0000200003_0000001_0_0001 (protein)
chain: SSSSTEANQEALELVLEAFRLLLRGDPEEAERVLKEAEELAREGNNPRLVEMIENLLRTQKSSSS
B11: il10ra_site1_sap_17_mot_b26a303360aa2756ef5b79665ce52f45_0001_000000179_0001_1_11_H_._HHH_b2_06946_0001_0000400005_0000001_0_0001_af2pred_0001 (protein)
chain: SSSSSEAEELVESALRAARIAREANDEEALKQALHAAKNTAKNHNNEELRELVEKVEEELHSSSS
B12: il10ra_site1_normal_mot_8756ee2cf497b5429c717dfc0c0bcfd6_0001_000000186_0001_1_13_H_._HHH_b2_04414_0001_0000600044_0000001_1 (protein)
chain: SSSSSSDELYRLLRRAAELNHEGNEEEARELVEQALELAEELNNDVAVAQAEYLLRQISSSSSSS
B13: il10ra_site1_sap_16_mot_HHH_b2_03553_000000260_0001_23_40_H_._HHH_b1_00984_0001_0000400023_0000002_0_0001 (protein)
chain: SQLMERSLKWVLERGDEETAKAAVEAMLRSRGVPPEEIEEILKEFEELLKKDPEEAVEFVVRLLE
B14: il10ra_site1_sap_20_mot_HHH_b1_06497_af2_000000119_0001_1_18_H_._4e2ac67898ad60a133cbede7db6c2933_0001_af2_0001_0000200008_0000002_0_0001 (protein)
chain: SSSSDDVFHRAWKLFREVAELLEEGDEERIEELLEEIEELYRATNNPALKAMLRAIRLRLNSSSS
B15: il10ra_site1_sap_8_mot_HHH_b1_06348_000000162_0001_1_15_H_._HHH_b1_06922_0001_0000100010_0000001_0_0001_af2pred_0001 (protein)
chain: SSSSSEAEKALRWFLRAVEELLKRGNPEAAKLALRDARFAAKFLNDEEIEERLEELEKLLDSSSS
B16: il10ra_site1_sap_17_mot_HHH_b1_05357_000000034_0001_23_39_H_._HHH_b2_07597_0001_0000100003_0000001_0_0001 (protein)
chain: SSSSSNEEQLRTRIEALLWFAKQADNKEALKLMLEFAEEAARELGDPEIERKVEEVEEELSSSSS
B17: il10ra_site1_sap_19_mot_HHH_b1_05056_000000217_0001_1_20_H_._HHH_b1_06884_0001_0000200009_0000002_0_0001 (protein)
chain: SSSSDLEERIEELEEEIKELEERGDKERVLRLLQEILQLIYHLQDKEKLRRLWEKLAKSRSSSSS
B18: il10ra_site1_sap_11_mot_HHH_b1_07743_af2_000000164_0001_42_55_H_._HHH_b2_01981_0001_0000100002_0000001_0_0001 (protein)
chain: SSSSDDEVLELSKEAFRLALRGDPEEAKEVLEEALRLAEEAGDERLAKIIRDLLKSLEAKSSSSS
B19: il10ra_site1_sap_19_mot_HHH_b1_08755_af2_000000053_0001_1_20_H_._HHH_b2_00911_af2_0001_0000400013_0000001_1_0001_af2pred_0001 (protein)
chain: SSSSSSIERAARLTLLLARLAVEGDEEEFEEVAKEVEEIAEELGNEALKELLEELHKRIHSSSSS
B20: il10ra_site1_normal_mot_HHH_b1_08755_af2_000000053_0001_1_20_H_._ems_3hC_645_0001_0001_0000400025_0000001_0 (protein)
chain: SSSEQEVFELVMEVLQVAFRAGDPEAMEEAYELSREAAEAAHNNDEEALKEVSERLEEFIEEFSS
B21: il10ra_site1_normal_mot_HHH_b1_05860_000000142_0001_1_19_H_._HHH_b1_06300_0001_0000100004_0000002_0 (protein)
chain: SSSSTEEVYKLLREAAELLDEGNPEEARKVLEEAREIAEELNNELFKIQLEFLLRTIEEYSSSSS
B22: il10ra_site1_sap_19_mot_HHH_b1_06816_000000239_0001_1_19_H_._HHH_b1_04199_0001_0000100004_0000002_0_0001 (protein)
chain: SSSSDEVEEYVRLALRFARWLYEVGDEEALRRMLKAARQVAERGNDPEAQELVREVEEELSSSSS
B23: il10ra_site1_sap_32_mot_HHH_b1_03763_000000278_0001_22_38_H_._HHH_b1_07630_0001_0000200010_0000002_0_0001_af2pred_0001 (protein)
chain: SSSSDERAQELAELTARFARFLAENGDHEAARFLLEAAEQILKKENDEELLEELRELLEELSSSS
B24: il10ra_site1_normal_mot_HHH_b1_05672_af2_000000246_0001_1_19_H_._HHH_b2_03011_0001_0000100004_0000002_0 (protein)
chain: SSSDLEERVAELLFRALRLLAEGDEEEARELIEEAEHLARERNDEELLRYVEILLRFLEARSSSS
B25: il10ra_site1_normal_mot_1c3c3e46dde0d4e4be3ec3dd9add6289_0001_000000096_0001_34_50_H_._HHH_b1_01049_0001_0000100004_0000001_1 (protein)
chain: SSSSTEETHEVYRLSREALELIFEGDREEVEEILERLEEIAREFNNPFVEFVLRALERALGSSSS
B26: il10ra_site1_sap_19_mot_HHH_b1_05370_000000138_0001_1_16_H_._HHH_b2_08139_0001_0000300046_0000002_0_0001 (protein)
chain: SSSSSEERREAYELLRELAKVIHEGDEERAEELIERIRELLEEVNDRILLAVLEYLERHLNSSSS
B27: il10ra_site1_normal_mot_HHH_b2_08172_af2_000000094_0001_41_56_H_._d0d27a57e4302dd0dd5ebafbde421892_0001_1_af2_0001_0000100002_0000002_0 (protein)
chain: SEEEEVREVLEEVVPDPEVVRLLELAFKRQLEQGSPPEDVLRALLLLARAAGDPDAFRALELLLK
B28: il10ra_site1_normal_mot_HHH_b2_00441_000000147_0001_1_18_H_._HHH_b2_05319_0001_0000300022_0000001_0 (protein)
chain: SSSSSSEVERAVRRLLHAARHLDEEYRELALKFAEALAKSENNEELQELVREVKEELERSSSSSS
B29: il10ra_site1_normal_mot_6bb093d23f5042b6c551c363657da53b_0001_1_000000153_0001_51_65_H_._HHH_b1_04905_0001_0000400014_0000002_0_af2pred_0001 (protein)
chain: SSSSSSEEELEELIRQIEEALERNDPELVVRLLRELARFAIKLSDQEAIRFVLEVAKKLGSSSSS
B30: il10ra_site1_sap_15_mot_HHH_b2_07873_af2_000000172_0001_1_19_H_._HHH_b2_03857_0001_0000100009_0000001_0_0001_af2pred_0001 (protein)
chain: SSSSDDRERAARRLLRAIRRAIELGDEELAKLALRVLERLLELLGDEELERLFEELERLVNSSSS
B31: il10ra_site1_sap_16_mot_HHH_b2_00800_af2_000000047_0001_1_20_H_._HHH_b2_01966_af2_0001_0000300020_0000001_0_0001_af2pred_dldesign_0_af2pred (protein)
chain: SSSSSDPEKAKEVNELLEQAKKEKDPEKAAELLRKATRLAWELGDSKLIQKVKDVAEELLSSSSS
B32: il10ra_site1_normal_mot_HHH_b2_00475_000000107_0001_44_57_H_._HHH_b1_00662_0001_0000100003_0000002_0 (protein)
chain: SSSSSIEERIVQLLLRALRLHVEGNPEEAERLIEEAHELAEELGDPELERYIRILLHFVKSSSSS
B33: il10ra_site1_normal_mot_3af0db62db2b275566dae2e03bf881fa_0001_000000003_0001_37_50_H_._HHH_b2_02568_0001_0000200009_0000002_0 (protein)
chain: SSSSSTQERQTAEAALFFAKFIEDPEAARRSAEYALELAEEYGDEELAEEIKELLEELGSSSSSS
B34: il10ra_site1_sap_24_mot_HHH_b2_08265_af2_000000206_0001_22_38_H_._HHH_b2_06062_0002_0000200006_0000002_0_0001_af2pred_dldesign_0_af2pred (protein)
chain: SSSSDPEEDEKLIEEIEKLIEEGKTEEAVEKLRELTRRAWESGDSALLQKAVELAKKIEEESSSS
B35: il10ra_site1_sap_14_mot_HHH_b2_00277_af2_000000172_0001_1_17_H_._HHH_b1_05907_0001_0000200015_0000002_0_0001 (protein)
chain: SSSSSEREEELKELEERAKELLEEGDTREASRLLAEAVRLAIRLGDPETFQELWELVKRIASSSS
B36: il10ra_site1_sap_21_mot_HHH_b1_03763_000000209_0001_22_38_H_._HHH_b2_04689_af2_0001_0000200006_0000001_0_0001_af2pred_0001 (protein)
chain: SSSSSEYEERVLRLIVEAFRLALNGNPEEAEKVLEEAEKILEENNDERHLLTVRRLLELLGSSSS
B37: il10ra_site1_sap_19_mot_HHH_b2_03284_af2_000000155_0001_1_21_H_._HHH_b1_04583_0001_0000100015_0000001_0_0001 (protein)
chain: SSSSNEESAEKSVKHFLEAAKQIEDEEYVRMSFRFARWLAEVANDPELERLVEEVFEELQSSSSS

target: il10ra, Q13651; assay: yeast display titration

Apparent Kd, inactive:
B1 no binding seen
B2 no binding seen
B3 no binding seen
B4 no binding seen
B5 no binding seen
B6 no binding seen
B7 no binding seen
B8 no binding seen
B9 no binding seen
B10 no binding seen
B11 no binding seen
B12 > 885 nM
B13 no binding seen
B14 > 455 nM
B15 no binding seen
B16 no binding seen
B17 no binding seen
B18 no binding seen
B19 no binding seen
B20 no binding seen
B21 no binding seen
B22 no binding seen
B23 no binding seen
B24 no binding seen
B25 no binding seen
B26 no binding seen
B27 no binding seen
B28 no binding seen
B29 no binding seen
B30 no binding seen
B31 no binding seen
B32 no binding seen
B33 no binding seen
B34 no binding seen
B35 no binding seen
B36 no binding seen
B37 no binding seen

2 entries drawn at random from the list so far:
Apparent Kd, inactive:
B22 no binding seen
B4 no binding seen
